PubChem BioAssay AID504793 | Drosophila RNAi Screening Center | 2011
In all, the deposit lists about 23,000 reagents; below is a random part of those with a known target gene and a result. Over the whole deposit, 62 (0.27%) are marked active. 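Calls come from follow-up tests whose scores are not deposited, so confirmed genes may have low counts here; counts are not normalised per plate.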 Raw values vary from plate to plate and are shown uncorrected. Names joined by + are all predicted targets of the reagent.

Assay: 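Genes required for cells to halt at G2/M after double-strand DNA breaks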 (primary screen)
System: Drosophila S2R+ cells
Reagent: long dsRNA against Drosophila genes, about 0.25 µg dsRNA per well
Timing: 4 days of dsRNA, then 4 hours of drug before read-out
Challenge: doxorubicin 0.5 µM for 4 hours to cause double-strand breaks, in cells also given a low, harmless dose of dsRNA against nbs to sensitise the assay
Measurement: 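Mitotic index as the number of phospho-histone H3-positive cells in each well following doxorubicin, given as raw counts without normalisation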
Reading the numbers: mitotic cells: higher = more cells in mitosis, weaker G2 arrest
Rule for the call: 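Genes are called active only when high mitotic counts were reproduced with independent dsRNAs and mitosis was checked for delay without damage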
Meaning of the calls: active = confirmed in follow-up tests; inactive = not confirmed

predicted target | DRSC id | mitotic cells, replicate 1 | mitotic cells, replicate 2 | Outcome
CG32582 (retired record) | DRSC19114 | 6 | – | inactive
RpL23 | DRSC04648 | 5 | – | inactive
Gnf1 | DRSC12351 | 4 | – | inactive
Gnf1 | DRSC26682 | 4 | – | inactive
ttm50 | DRSC18587 | 4 | – | inactive
cal1 | DRSC15725 | 8 | – | inactive
ric8a | DRSC18093 | 8 | – | inactive
ric8a | DRSC24387 | 7 | – | inactive
epsilonTry | DRSC07611 | 4 | – | inactive
epsilonTry | DRSC25110 | 5 | – | inactive
Lpt | DRSC04291 | 5 | – | inactive
Lpt | DRSC04515 | 14 | – | inactive
CCHa1 | DRSC24978 | 2 | – | inactive
CG9806 | DRSC18444 | 12 | – | inactive
CG9806 | DRSC27417 | 4 | – | inactive
Prp38 | DRSC07060 | 4 | – | inactive
Prp38 | DRSC28968 | 4 | – | inactive
His3:CG33818 + His3:CG33857 + His3:CG33806 + 21 more | DRSC27099 | 7 | – | inactive
Hsp70Bb + Hsp70Bbb | DRSC15885 | 7 | – | inactive
COX7A | DRSC16514 | 5 | – | inactive
Cpr64Ab | DRSC08461 | 5 | – | inactive
Cpr64Ab | DRSC25195 | 6 | – | inactive
dom | DRSC04558 | 11 | – | inactive
dom | DRSC04559 | 4 | – | inactive
dom | DRSC29669 | 6 | – | inactive
Arp10 | DRSC19448 | 21 | 18 | inactive
Arp10 | DRSC28715 | 6 | – | inactive
CG9117 | DRSC03141 | 8 | – | inactive
CG15404 | DRSC00418 | 2 | – | inactive
CG11263 | DRSC09832 | 8 | – | inactive
CG13110 | DRSC02208 | 6 | 13 | inactive
CG10927 | DRSC06014 | 4 | – | inactive
CG10927 | DRSC29800 | 9 | – | inactive
Dek | DRSC07418 | 6 | – | inactive
Dek | DRSC23928 | 9 | – | inactive
RpL35A | DRSC12302 | 4 | – | inactive
l(2)efl | DRSC04698 | 6 | – | inactive
lectin-28C | DRSC03010 | – | – | inactive
lectin-28C | DRSC26982 | 11 | – | inactive
NimC2 | DRSC01881 | 2 | – | inactive
CG10527 | DRSC04078 | 8 | – | inactive
CG10527 | DRSC27160 | 2 | – | inactive
Pex19 | DRSC02839 | 4 | – | inactive
p53 | DRSC17024 | 10 | – | inactive
CG33493 | DRSC10642 | 8 | – | inactive
CG33493 | DRSC25546 | 8 | – | inactive
Gr28b | DRSC02291 | 7 | – | inactive
Gr28b | DRSC02292 | 4 | – | inactive
Gr28b | DRSC29459 | 3 | – | inactive
CG16868 | DRSC06633 | 2 | – | inactive
CG15035 | DRSC17967 | 8 | – | inactive
RAF2 | DRSC10443 | 11 | – | inactive
RAF2 | DRSC10454 | 2 | – | inactive
RAF2 | DRSC26436 | 12 | – | inactive
CR11023 | DRSC00302 | 4 | – | inactive
CR11023 | DRSC28266 | 6 | – | inactive
CG14313 | DRSC14792 | 11 | – | inactive
spict | DRSC02157 | 6 | – | inactive
spict | DRSC28072 | 6 | – | inactive
Alg2 | DRSC08298 | 11 | – | inactive
CG8543 | DRSC10990 | 5 | – | inactive
CG8543 | DRSC22809 | 9 | – | inactive
CG8543 | DRSC25399 | 8 | – | inactive
Lcp65Aa | DRSC11209 | 5 | – | inactive
Lcp65Aa | DRSC27546 | 6 | – | inactive
CG31323 | DRSC14901 | 7 | – | inactive
CG10298 | DRSC12522 | 3 | – | inactive
CG10298 | DRSC25489 | 12 | – | inactive
frc + Coq4 + Gorab | DRSC29314 | 6 | – | inactive
GstZ1 | DRSC16478 | 9 | – | inactive
Obp46a | DRSC06220 | 8 | – | inactive
CycC | DRSC16619 | 26 | – | active
CG14974 | DRSC08433 | 9 | – | inactive
RpS15 | DRSC07151 | 6 | – | inactive
RpS15 | DRSC23462 | 2 | – | inactive
Shawn + Tyler | DRSC19564 | 9 | – | inactive
Shawn + Tyler | DRSC19565 | 13 | – | inactive
Acox57D-d | DRSC04561 | 10 | – | inactive
Acox57D-d | DRSC30108 | 5 | – | inactive
onecut | DRSC17175 | 8 | – | inactive
onecut | DRSC26072 | 5 | – | inactive
CG31342 | DRSC15349 | 6 | – | inactive
CG31342 | DRSC16246 | 6 | – | inactive
GckIII | DRSC15729 | 6 | – | inactive
cocoon | DRSC10916 | 5 | – | inactive
cocoon | DRSC28623 | 5 | – | inactive
conv | DRSC07213 | 6 | – | inactive
Cyp9f3 | DRSC16636 | 7 | – | inactive
Cyp9f3 | DRSC25711 | 8 | – | inactive
CG8173 | DRSC20088 | 8 | – | inactive
CG12121 | DRSC17816 | 9 | – | inactive
CG43740 | DRSC23267 | 1 | – | inactive
Obp56c | DRSC06552 | 14 | – | inactive
Obp56c | DRSC22325 | 6 | – | inactive
Obp56c | DRSC28276 | 6 | – | inactive
Elba1 | DRSC00276 | 4 | – | inactive
Elba1 | DRSC24062 | 3 | – | inactive
CG31821 | DRSC22162 | 11 | – | inactive
CG31960 | DRSC00281 | 2 | – | inactive
CG31960 | DRSC26274 | 5 | – | inactive
robl22E | DRSC00289 | 5 | – | inactive
or | DRSC04329 | 6 | – | inactive
or | DRSC29241 | 5 | – | inactive
Paip2 | DRSC14504 | 12 | – | inactive
Rpp14b | DRSC15063 | 17 | – | inactive
CG8006 | DRSC10949 | 9 | – | inactive
CG14610 + asRNA:CR42738 | DRSC12554 | 2 | – | inactive
Peritrophin-15a | DRSC02636 | 4 | – | inactive
Peritrophin-15a | DRSC29171 | 7 | – | inactive
Drs | DRSC08657 | 8 | – | inactive
Drs | DRSC27852 | 6 | – | inactive

5 entries from above, ordered by “mitotic cells, replicate 1”, highest first:
predicted target | DRSC id | mitotic cells, replicate 1 | mitotic cells, replicate 2 | Outcome
cal1 | DRSC15725 | 8 | – | inactive
ric8a | DRSC18093 | 8 | – | inactive
ric8a | DRSC24387 | 7 | – | inactive
ttm50 | DRSC18587 | 4 | – | inactive
epsilonTry | DRSC07611 | 4 | – | inactive
